Measured values published in publication PMC4111866, “Enhancement in corneal permeability of riboflavin using calcium sequestering compounds” (International Journal of Pharmaceutics, 2014).

Test: Isothermal titration calorimetry of chelators titrated with CaCl2
Format: binding
Settings: 0.4 mM chelator in 10 mM MES, pH 7.4 ± 0.2, 25 °C; CaCl2 6 mM (EDTA, EGTA) or 25 mM (EDDS)

Structure (SMILES)	Stoichiometry, N	ΔH	ΔS
O=C(O)CC(NCCNC(CC(=O)O)C(=O)O)C(=O)O (stereo not drawn) [EDDS, ethylenediamine-N,N′-disuccinic acid]	1.55 ± 0.04	0.963 ± 0.0908 kcal/mol	80.21 ± 0.63 kJ mol^−1 deg^−1
O=C(O)CN(CCN(CC(=O)O)CC(=O)O)CC(=O)O [EDTA, Ethylenediaminetetraacetic acid]	1.12 ± 0.06	-2.761 ± 0.0598 kcal/mol	77.70 ± 1.88 kJ mol^−1 deg^−1
O=C(O)CN(CCOCCOCCN(CC(=O)O)CC(=O)O)CC(=O)O [EGTA, ethylene glycol-bis(2-aminoethylether)-N,N,N′,N′-tetraacetic acid]	1.34 ± 0.29	-3.131 ± 0.1 kcal/mol	54.68 ± 2.80 kJ mol^−1 deg^−1
